In PMC11055865:

Tests used:
HROB-FLAG T126P (human) = system: T1, HROB-FLAG T126P (human); test: EMSA; conditions: 3 mM EDTA, EMSA: 25 mM Tris-acetate pH 7.5, 3 mM EDTA (or 4 mM ATP/ATPgS + 1 mM Mg acetate), 1 mM DTT, 0.1 mg/ml BSA, 1 nM DNA (100 ng for M13), 15 min on ice, gels at 4 C, recombinant protein, residues 1-646, protein details: C-terminal FLAG
T1 sequence (looked up): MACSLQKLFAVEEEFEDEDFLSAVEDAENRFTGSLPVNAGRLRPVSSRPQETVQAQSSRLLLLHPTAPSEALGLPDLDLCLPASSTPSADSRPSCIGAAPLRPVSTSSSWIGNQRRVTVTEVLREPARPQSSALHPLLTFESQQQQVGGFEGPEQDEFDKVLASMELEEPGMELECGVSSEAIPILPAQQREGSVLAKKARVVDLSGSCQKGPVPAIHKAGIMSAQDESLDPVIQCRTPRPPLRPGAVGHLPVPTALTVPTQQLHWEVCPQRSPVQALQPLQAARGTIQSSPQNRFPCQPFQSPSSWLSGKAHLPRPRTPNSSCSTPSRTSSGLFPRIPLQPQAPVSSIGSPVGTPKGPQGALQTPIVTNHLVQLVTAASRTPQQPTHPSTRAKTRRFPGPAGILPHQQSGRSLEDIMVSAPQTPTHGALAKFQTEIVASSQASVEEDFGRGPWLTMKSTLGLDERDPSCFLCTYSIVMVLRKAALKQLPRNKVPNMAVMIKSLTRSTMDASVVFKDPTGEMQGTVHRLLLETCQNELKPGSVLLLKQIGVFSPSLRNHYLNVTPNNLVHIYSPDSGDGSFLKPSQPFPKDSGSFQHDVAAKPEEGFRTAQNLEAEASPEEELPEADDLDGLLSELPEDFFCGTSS

[1] = system: pMCM8 (phosphorylated complex) + pMCM9 (phosphorylated complex); test: EMSA; conditions: 3 mM EDTA, EMSA: 25 mM Tris-acetate pH 7.5, 3 mM EDTA (or 4 mM ATP/ATPgS + 1 mM Mg acetate), 1 mM DTT, 0.1 mg/ml BSA, 1 nM DNA (100 ng for M13), 15 min on ice, gels at 4 C, recombinant protein, protein details: N-terminal FLAG,N-terminal MBP
[2] = not bound almost at all, label: 3' 32P-dC on PC1253

“TGGGTCAACGTGGGCAAAGATGTCCTAGCAATGTAATCGTCTATGACGTT / AACGTCATAGACGATTACATTGCTA [5' overhang (PC1253/312)]”: binds more weakly (HROB-FLAG T126P (human); [2]); binds more weakly ([1]; only slightly less than HJ and Y, label: 3' 32P-dC on PC1253).
“TGGGTCAACGTGGGCAAAGATGTCCTAGCAATGTAATCGTCTATGACGTT (double strand) [dsDNA (PC1253/PC1253C)]”: binds more weakly (HROB-FLAG T126P (human); [2]).
“TGGGTCAACGTGGGCAAAGATGTCCTAGCAATGTAATCGTCTATGACGTT / TGCCGAATTCTACCAGTGCCAGTGATGGACATCTTTGCCCACGTTGACCC / GTCGGATCCTCTAGACAGCTCCATGATCACTGGCACTGGTAGAATTCGGC / CAACGTCATAGACGATTACATTGCTACATGGAGCTGTCTAGAGGATCCGA [Holliday junction (PC1253/PC1254/PC1255/PC1256)]”: binds ([1]; no ATP, highest affinity, label: 3' 32P-dC on PC1253, folded or branched DNA).
“TGCCGAATTCTACCAGTGCCAGTGATGGACATCTTTGCCCACGTTGACCC / TGGGTCAACGTGGGCAAAGATGTCCTAGCAATGTAATCGTCTATGACGTT [Y-structure (PC1254/PC1253)]”: binds ([1]; no ATP, highest affinity, label: 3' 32P-dC on PC1254, folded or branched DNA).
“TGGGTCAACGTGGGCAAAGATGTCCTAGCAATGTAATCGTCTATGACGTT [PC1253 (50 nt ssDNA)]”: binds more weakly (HROB-FLAG T126P (human); less efficient than 93 nt, label: 3' 32P-dC, single-stranded DNA).
“GAGATCTATCTGGTGCCTTCTGACAGTGAATGGGTAACGAATCGTAATAGTCTCTAGACAGCATGTCCTAGCAATGTAATCGTCTATGACGTC [X12-3 HJ3 (93 nt ssDNA)]”: binds ([1]; 30 mM NaCl, label: 3' 32P-dC (terminal transferase), single-stranded DNA); binds more weakly ([1]; 100 mM NaCl, binding inhibited by salt, label: 3' 32P-dC (terminal transferase), single-stranded DNA).
“GTCGGATCCTCTAGACAGCTCCATGATCACTGGCACTGGTAGAATTCGGC / CATGGAGCTGTCTAGAGGATCCGAC [3' overhang (PC1255/314)]”: binds more weakly (HROB-FLAG T126P (human); not bound almost at all, label: 3' 32P-dC on PC1255); binds more weakly ([1]; only slightly less than HJ and Y, label: 3' 32P-dC on PC1255).

A weaker result is weaker than the reference pair of the same experiment. For some of these results: Protein sequences can lack the tags named with them. For some of these results: For at least one entry, the source does not settle the construct or the ends of the probe. For some of these results: At least one verdict was read from the data and is not stated in words by the source.
